SMILES strings stand for the structures. The list shows a part of the results. The main result of the screen is listed elsewhere. These columns were measured beside it and carry no call. The list favours compounds with an active or inconclusive main result. Potencies come from curve fits of mixed quality, noted in brackets.

The experiment is described as follows: qHTS Assay to Find Inhibitors of Chronic Active B-Cell Receptor Signaling. The note with it: ABC-DLBCL IkBa-CBG/CBR reporter, luminescence ratio (green luciferase fused to IkBa over red control in TMD8 lymphoma cells), 4 h. Put shortly:
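Compounds up to 46 uM were incubated four hours with TMD8 cells whose green CBG68 luciferase is fused to IkappaBalpha; red CBR luminescence normalised the signal, and concentration-effect curves were fitted to fusion, red and ratio data.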
(In qHTS, concentration-response curves come from the screen itself.)

Where [1] appears, read: measured here: CBR red luminescence, cell number.
Where [2] appears, read: measured here: IkBa-CBG green luminescence.

For the molecule `COC(=O)CSc1nc(Cc2ccccc2)nc2ccccc12`, under setting [1], the half-maximal activity concentration (AC50) (usually the concentration at which the activity in the assay is half-maximal) was 22.4 µM [falling, single point]. Turning to `CC1Cc2ccccc2N1C(=O)CSc1nn2c(=O)c(C(C)(C)C)nnc2s1` (stereo unspecified), the AC50 was 20 µM [falling, single point] under setting [1] and 5.01 µM [rising, full curve, poor fit] under setting [2].

As to `CC1CCCN(C(=O)CCCn2c(=S)[nH]c3ccccc3c2=O)C1` (stereo unspecified), the half-maximal activity concentration (AC50) under setting [1] was 18.4 µM [falling, single point].

As for `CCOc1cccc(CN(CC)CC2CCCN(CCc3cccc(OC)c3)C2)c1O` (stereo unspecified), under setting [1], the AC50 was 22.4 µM [falling, single point].

For `N#Cc1cccc(N=c2ssnc2Cl)c1`, the concentration at half-maximal activity (AC50) reads like this: under setting [1], 10 µM [rising, partial curve, poor fit]; under setting [2], 22.4 µM [falling, partial curve, poor fit].

On to `CCOC(=O)c1c(C)[nH]c(C)c1C(=O)COC(=O)/C=C/c1ccc(OC(F)F)cc1`, for which the AC50 under setting [1] was 29.1 µM [rising, single point]. On the same count and under the same terms, to `CC(Sc1ccccc1)C(=O)NN=C1CCCCCCC1` (stereo unspecified) belongs 35.5 µM [rising, single point]; to `COc1ccc(C(C)NCCC(c2ccc(OC(C)C)cc2)c2ccccc2OC)cc1` (stereo unspecified), 17.8 µM [falling, single point]; to `COc1ccc(OC(C)C(=O)N(C)Cc2nc(-c3cccc(C)c3)no2)cc1` (stereo unspecified), 35.5 µM [rising, partial curve, poor fit]. On the same count and under the same terms, to `COc1ccc(Cl)cc1NC(=S)N1CCN(c2ccccn2)CC1` belongs 11.2 µM [rising, single point]; to `CC(C)(C)CC(=O)NCCc1csc(-c2ccccc2)n1`, 5.62 µM [rising, single point]. Still for that read-out and setting: to `O=C(Nc1ccc(F)cc1)Nc1ccccc1C(=O)NCCN1CCNC1=O` belongs 5.62 µM [falling, full curve, poor fit]; to `O=C1C(c2ccc(F)cc2)N(CC2COc3ccccc3O2)C(=O)CN1C1CCCCC1` (stereo unspecified), 6.31 µM [falling, single point]; to `COc1ccc(OC)c(-n2c(C)cc(C=O)c2C)c1`, 7.08 µM [rising, full curve, poor fit]. Regarding `CCOC(=O)C1=C(c2ccccc2)Nc2ncnn2C1c1cc(OC)ccc1OC` (stereo unspecified), under setting [1], the concentration at half-maximal activity (AC50) is 20.6 µM [rising, single point]. On the same count and under the same terms, to `CNc1ccc(Br)cc(C(=O)/C=C/c2cccc(OC)c2)c1=O` belongs 2.59 µM [falling, full curve, poor fit]. The same measure, in the same setting: to `Cc1nc(N)sc1C(=O)N/N=C/c1cccnc1` belongs 2.51 µM [falling, partial curve]; to `Cc1c(/C=C/C(=O)c2ccccc2O)cnn1C`, 0.517 µM [rising, full curve].

With `CC(/C=N/n1c(C2CCCCC2)n[nH]c1=S)=C\c1ccccc1`, the AC50 under setting [1] is 11.2 µM [rising, partial curve]. On the same count and under the same terms, to `Cc1ccc(NC(=O)CCN2C(=O)c3ccccc3C2=O)c(C)c1` belongs 10 µM [rising, partial curve]; to `CCC(=O)O[C@]1(C(=O)CCl)[C@@H](C)C[C@H]2[C@@H]3CCC4=CC(=O)C=C[C@]4(C)[C@@]3(F)[C@@H](O)C[C@@]21C`, 35.5 µM [falling, single point]. Same read-out and setting: next, `CC(=O)Nc1ccc(S(=O)(=O)Nc2nc(CN3CCOCC3)nc3sc4c(c23)CCCC4)cc1`: 1.84 µM [falling, partial curve, poor fit].

As to `CCOC(=O)c1sc2nc(C)nc(SCC(=O)NC3CCS(=O)(=O)C3)c2c1C` (stereo unspecified), the concentration at half-maximal activity (AC50) under setting [1] is 5.01 µM [rising, single point].

As for `Cc1nn(C(C)(C)C)c(OC(=O)CC(C)C)c1S(=O)(=O)c1ccccc1`, under setting [1], the half-maximal activity concentration (AC50) is 35.5 µM [rising, single point]. On the same count and under the same terms, next, `Cc1ccc(SCCSc2nc(C)cc(=O)[nH]2)cc1`: 14.1 µM [rising, single point].

Consider `CCC(=O)Nc1ccc(C(=O)COC(=O)c2sc(C)nc2C)cc1`, for which the AC50 under setting [1] is 2.06 µM [rising, full curve, poor fit]. The same measure, in the same setting: next, `O=C(NC1CCCCC1)N1CCN(Cc2ccco2)CC1`: 35.5 µM [falling, single point]; `Cc1ccc(S(=O)(=O)N/N=C/c2ccc(O)cc2O)cc1[N+](=O)[O-]`: 22.4 µM [falling, single point]. The same measure, in the same setting: next, `CCS(=O)(=O)c1nc(S(=O)(=O)c2ccc(C)cc2)c(NCCCn2ccnc2)s1`: 1.12 µM [rising, single point]; `CC12C(=O)N(Cc3ccco3)C(=O)C1C1c3ccccc3C2c2ccccc21` (stereo unspecified): 0.58 µM [falling, single point]. Same read-out and setting: next, `Cc1nc2sc(C(c3ccccc3)N3CC(C)OC(C)C3)c(O)n2n1` (stereo unspecified): 22.4 µM [rising, single point]; `Cc1nc(NC(=O)c2ccccc2)sc1-c1csc(Nc2ccc(C(=O)O)cc2)n1`: 0.447 µM [falling, partial curve, poor fit].

Regarding `CCCN(C(=O)c1ccco1)c1nnc(-c2cccc(C)c2)s1`, the AC50 under setting [1] was 35.5 µM [rising, single point]. On the same count and under the same terms, to `Cn1ccnc1SCC(=O)c1ccc2ccccc2c1` belongs 11.2 µM [falling, partial curve, poor fit]. Same read-out and setting: next, `COc1ccc(OC)c(CN2C(=O)c3ccccc3C2C(=O)NCC2CCCO2)c1` (stereo unspecified): 35.5 µM [rising, single point]; `Cc1ccc(/C=C/C(=O)c2ccc(O)cc2)cc1`: 31.6 µM [falling, single point]; `COc1ccccc1-c1noc(-c2cc(OC)c(OC)c(OC)c2)n1`: 10.3 µM [rising, partial curve, poor fit]. Still for that read-out and setting: to `COCCN1C(=O)c2ccc(C(=O)O)cc2C1=O` belongs 4.61 µM [rising, full curve, poor fit]; to `CN(C)CC/C=C1\c2ccccc2Sc2ccc(Cl)cc21`, 15.8 µM [falling, single point]. For the molecule `CC1CCCCN1C(=S)NC(=O)c1cccs1` (stereo unspecified), the AC50 under setting [1] is 22.4 µM [rising, partial curve, poor fit] and the AC50 under setting [2] is 22.4 µM [falling, partial curve, poor fit]. Consider `CN(C(=O)CN1C(=O)S/C(=C\c2cccc(Cl)c2)C1=O)C1CCS(=O)(=O)C1` (stereo unspecified), for which, under setting [1], the AC50 was 22.4 µM [falling, partial curve]. On the same count and under the same terms, next, `COC(=O)C1=CN(c2ccc(F)cc2)C=C(C(=O)OC)C1c1cccc([N+](=O)[O-])c1`: 12.6 µM [falling, single point]; `CCn1c(SCC(=O)Nc2ccc(NC(C)=O)cc2)nnc1C1CC1`: 0.1 µM [rising, full curve, poor fit]; `CCCCC(=O)NC(c1ccccc1OC)c1ccc2cccnc2c1O` (stereo unspecified): 1.26 µM [falling, full curve, poor fit].

As to `Cc1ccc(-n2ncc3c(Nc4cccc(Cl)c4)ncnc32)c(C)c1`, the concentration at half-maximal activity (AC50) under setting [1] was 0.447 µM [rising, full curve, poor fit]. The same measure, in the same setting: to `COc1cc(OC)c(NC(=O)CCCNC(=O)Cn2cnc3sc(C)c(C)c3c2=O)cc1Cl` belongs 35.5 µM [rising, single point]; to `Cc1cc(C)nc(NC(=O)/C=C/c2ccc3c(c2)OCO3)c1`, 18.4 µM [falling, partial curve]; to `CCCCN(C)S(=O)(=O)c1ccc(C(=O)Nc2nnc(-c3cccs3)o2)cc1`, 17.8 µM [falling, single point].

Turning to `Cc1ccc(C(=O)Nc2nc(-c3ccccn3)cs2)cc1S(=O)(=O)N1CCOCC1`, the AC50 under setting [1] was 4.61 µM [falling, full curve]. Same read-out and setting: to `COc1cccc(-c2nn(-c3ccccc3)cc2C(=O)Nc2nccs2)c1` belongs 13 µM [falling, partial curve, poor fit]; to `Cc1ccc(S(=O)(=O)CCC(=O)Nc2nnc(-c3ccccc3S(C)(=O)=O)o2)cc1`, 6.51 µM [rising, single point]; to `O=C1C2C3C=CC(C3)C2C(=O)N1CCCCCCN1C(=O)C2C3C=CC(C3)C2C1=O` (stereo unspecified), 35.5 µM [falling, single point]. As for `COc1ccc(-c2nc(NC(=O)Cn3c(=O)oc4ccccc43)sc2C)cc1`, under setting [1], the AC50 was 8.2 µM [falling, partial curve, poor fit]. As for `CCOc1cccc(N2C(=O)CC(N(CCc3ccc(OC)c(OC)c3)C(=O)CC)C2=O)c1` (stereo unspecified), under setting [1], the concentration at half-maximal activity (AC50) was 2.06 µM [rising, full curve, poor fit]. Still for that read-out and setting: to `CC1(C)C(=O)OC(C(=O)c2ccc(C(C)(C)C)cc2)C(C)(C)C1=O` (stereo unspecified) belongs 0.517 µM [rising, full curve, poor fit]; to `O=C(Nc1ccccc1N1CCCCC1)C1CCN(C(=O)c2ccc(Cl)cc2)CC1`, 16.4 µM [falling, partial curve]. Same read-out and setting: next, `CCN(CC)C(=O)c1sc(NC(=O)Cc2cccs2)c(C#N)c1C`: 12.6 µM [rising, partial curve, poor fit]. `O=C(O)CCCC(=O)N1N=C(c2c(-c3ccccc3)c3cc(Cl)ccc3[nH]c2=O)CC1c1cccs1` (stereo unspecified): the half-maximal activity concentration (AC50) was 18.4 µM [falling, single point] under setting [1] and 29.1 µM [rising, single point] under setting [2]. With `CCN(CC)S(=O)(=O)c1cccc(NC(=O)c2cc3ccccc3o2)c1`, the AC50 under setting [1] was 3.98 µM [falling, partial curve]. Same read-out and setting: next, `COc1ccc(NC(=O)CC2C(=O)N(c3ccc(F)cc3)C(=S)N2NC(=O)c2ccccc2)cc1` (stereo unspecified): 16.4 µM [falling, partial curve]; `Cn1cc(C(=O)N/N=C/c2cccs2)c2ccccc21`: 10.3 µM [falling, partial curve]; `Cc1ccc(C)c(-c2nnc(OCC(=O)Nc3cc(C)on3)c3ccccc23)c1`: 32.6 µM [falling, single point].
